Article PMC12058022, “Promiscuous structural cross-compatibilities between major shell components of Klebsiella pneumoniae bacterial microcompartments” (PLOS One, 2025)
No constants are given. Whether binding was seen depends on the method and setting. Binding calls can cover weak binding; strength is not graded here. Tags and fused reporters may be left off the sequences shown. For some assays here: In cells and extracts the contact can be indirect.

How the values were obtained:
[1] = molecular target: PduA, His6-tagged (Klebsiella pneumoniae (strain 342)); assay: pull-down; co-purification of a FLAG-tagged BMC-H with a co-expressed His6-tagged BMC-H on cobalt-chelate columns from soluble fractions of E. coli BL21(DE3), with 1 mM beta-mercaptoethanol added before loading; washes 20 mM NaPi/300 mM NaCl/10 mM imidazole pH 8.0; SDS-PAGE and anti-FLAG western blot
[2] = molecular target: PduA, His6-tagged (Klebsiella pneumoniae (strain 342)); assay: SEC; SEC-HPLC of fractions purified on cobalt resin from strains co-expressing a FLAG-tagged and a His6-tagged BMC-H; profiles compared with those of the individual proteins; 20 mM Tris-HCl, 300 mM NaCl, pH 7; both purified

B1: PduJ, His6-tagged (natural protein, Klebsiella pneumoniae (strain 342), UniProt A6TDD7 1-91, looked up)
chain: MNNALGLVETKGLVGAIEAADAMVKSANVQLIGYEKIGSGLITVMVRGDVGAVKAAVDAGSAAASVVGEVKSSHVIPRPHSDVEAILPKSV
notes: PduJ, canonical BMC-H shell protein of the PDU microcompartment; theoretical monomer MW 9.2 kDa; not shown: His6, C-terminal, kept
- binding [1]: binds
- binding [2]: binds
